Measurements as given in patent publication US6197752A, “Glycomimetics as selectin antagonists and pharmaceuticals having antiinflammatory activity prepared therefrom” (Glycorex AB, priority 1995, dated 2001).

Test system: leukocyte adhesion on the endothelium
Assay: LPS-induced leukocyte adhesion in vivo, intravital microscopy in the mesenterium of the rat
Settings: SPRD (m)
Excerpt: In inflammatory processes and other states which activate the cytokines, a critical part is played by the destruction of tissue by means of leukocytes which migrate in or which block the microcirculation. The first phase, which is critical for the subsequent course of the disease, is the activation of leukocytes within the blood stream, especially in the pre- and post-capillary area. […] All subsequent leukocyte effects, i.e. active migration through the vessel wall and subsequent oriented migration in the tissue, are secondary reactions (Harlan, J. M., Leukocyte-endothelial interaction, Blood 65, 513-525,1985).
This receptor-mediated interaction of leukocytes and endothelial cells is regarded as an initial sign of the inflammation process. In addition to the merely physiologically expressed adhesion molecules, under the action of inflammation mediators (leukotrienes, PAF) and cytokines (TNF-alpha, interleukins) there is massive, chronologically graduated expression of adhesion molecules on the cells. They are currently subdivided into three groups: 1. immunoglobulin gene superfamily, 2. integrins and 3. selectins. Whereas adhesion between molecules of the Ig gene superfamily takes place by way of protein-protein bonds, in the case of cooperation between selectins it is lectin-carbohydrate bonds which are principally involved (Springer, T. A., Adhesion receptors of the immune system. Nature 346, 425-434, 1990; Huges, G., Cell adhesion molecules--the key to a universal panacea, Scrips Magazine 6, 30-33,1993; Springer, T. A., Traffic signals for lymphocyte recirculation and leukocyte emigration; The multistep paradigm. Cell 76, 301-314,1994).
The induced adhesion of leukocytes is quantified by an investigation technique involving intravital microscopy in the mesenterium of the rat (Atherton A. and Born G.V.R., Quantitative investigations of the adhesiveness of circulating polymorphonuclear leukocytes to blood vessel walls. J. Physiol. 222, 447-474,1972; Seiffge, D. Methoden zur Untersuchung der Rezeptor-vermittelten Interaktion zwischen Leukozyten und Endotheizellen im Entzundungsgeschehen [Methods of investigating receptor-mediated interaction between leukocytes and endothelial cells in the case of inflammation] in: Ersatz- und Erganzungsmethoden zu Tierversuchen in der biomedizinischen Forschung, Schoffl, H. et al., (eds.) Springer, 1995 (in press)). Under ether-inhalation anesthesia, long-term anesthesia is induced by intramuscular injection of urethane (1.25 mg/kg BW). […] The resulting increased adhesion of leukocytes on the endothelium is quantified directly by vital microscopy or with the aid of fluorescent dyes. All measurement operations are recorded by video camera and stored on a video recorder.

C[C@@H]1O[C@@H](CCCOC(=O)N2CCC(C(=O)O)CC2)[C@@H](O)[C@H](O)[C@@H]1O [Compound 12c]
fibrinogen (3 mg/kg, 1 day i.v.): 109 mg/100 mL | leukocytes (3 mg/kg, 1 day i.v.): 8.7 +/- 0.9 10^3/mm^3 | fibrinogen (20 mg/kg, 1 day p.o.): 137 +/- 10.0 mg/100 mL | leukocytes (20 mg/kg, 1 day p.o.): 7.6 10^3/mm^3
